PubChem BioAssay AID1053208 – Peter MacCallum Cancer Centre – 2014
Shown is an unselected part of about 17,000 reagents tested. 788 of all reagents (4.7%) were called active. 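Calls rest on z-score classes alone; an extra cut-off of viability at most 70% of control was not applied to them.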

Purpose: 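Genes whose silencing cuts survival of bone tumour cells only with doxorubicin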 (primary screen)
System: mouse osteosarcoma cells, early-passage culture from an engineered mouse model of fibroblastic bone tumour
Knock-down reagent: siRNA pool against mouse genes, 40 nM
Time to read-out: about 120 h (48 h before drug, then 72 h with drug)
Challenge: doxorubicin 100 nM for 72 h, roughly 30-40% inhibitory dose
Measured: 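Viability read as ATP luminescence after 72 h of 100 nM doxorubicin or none, duplicate wells averaged, scaled to non-targeting siRNA, then expressed as robust z-scores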
Direction: viability z-score with doxorubicin and doxorubicin viability vs non-targeting: higher = more viable cells under doxorubicin; viability z-score without drug: higher = more viable cells with knock-down alone; z-score of drug to no-drug ratio: higher = less drug sensitisation by knock-down
Rule for the call: 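Called active if knock-down leaves viability unchanged without drug (z within -2 to 2) but lowers it with doxorubicin (z at or under -2)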

no.	gene	combined z-score class	viability z-score with doxorubicin	viability z-score without drug	z-score of drug to no-drug ratio	doxorubicin viability vs non-targeting	activity call
1	Ttc22 (tetratricopeptide repeat domain 22)	high cell count with doxorubicin only	2.02	1.69	1.01	1.12	inactive
2	Fkbp1b (FK506 binding protein 1b)	no change with or without drug	1.12	0.84	0.67	1.04	inactive
3	Tmed6 (transmembrane p24 trafficking protein 6)	high cell count without drug only	-0.22	3.54	-2.14	0.92	inactive
4	Arid3b (AT-rich interaction domain 3B)	no change with or without drug	-1.12	-0.84	-0.56	0.84	inactive
5	Hnrnph1 (heterogeneous nuclear ribonucleoprotein H1)	no change with or without drug	0.67	0	0.79	1	inactive
6	Nudc (nudC nuclear distribution protein)	no change with or without drug	0.34	0.17	0.34	0.97	inactive
7	Abca6 (ATP-binding cassette, sub-family A member 6)	no change with or without drug	1.12	0.17	1.12	1.04	inactive
8	Krcc1 (lysine-rich coiled-coil 1)	no change with or without drug	0.56	-0.51	1.12	0.99	inactive
9	Cyp3a41a (cytochrome P450, family 3, subfamily a, polypeptide 41A)	no change with or without drug	0.79	0.34	0.67	1.01	inactive
10	Xrcc5 (X-ray repair complementing 5)	no change with or without drug	0.67	0.51	0.45	1	inactive
11	Igfbp3 (insulin-like growth factor binding protein 3)	no change with or without drug	-0.22	-0.84	0.45	0.92	inactive
12	Dnm1 (dynamin 1)	no change with or without drug	-1.24	-0.17	-1.12	0.83	inactive
13	Use1 (unconventional SNARE in the ER 1 homolog (S. cerevisiae))	high without drug; low with doxorubicin	-2.59	2.19	-3.6	0.71	inactive
14	Il12rb2 (interleukin 12 receptor, beta 2)	high cell count with doxorubicin only	2.02	0	2.25	1.12	inactive
15	Tns1 (tensin 1)	no change with or without drug	-1.57	-0.84	-1.01	0.8	inactive
16	Ppnr (per-pentamer repeat gene)	no change with or without drug	-1.8	0.67	-2.14	0.78	inactive
17	Plpp7 (phospholipid phosphatase 7 (inactive))	no change with or without drug	-0.45	-0.17	-0.22	0.9	inactive
18	B4galt1	no change with or without drug	0.9	0.51	0.67	1.02	inactive
19	Phxr5 (per-hexamer repeat gene 5)	no change with or without drug	-1.57	0.17	-1.69	0.8	inactive
20	Cdc14a (CDC14 cell division cycle 14A)	no change with or without drug	-1.35	-0.51	-1.01	0.82	inactive

Quoted from the entries so far for reference:
no.	gene	combined z-score class	viability z-score with doxorubicin	viability z-score without drug	z-score of drug to no-drug ratio	doxorubicin viability vs non-targeting	activity call
4	Arid3b (AT-rich interaction domain 3B)	no change with or without drug	-1.12	-0.84	-0.56	0.84	inactive
5	Hnrnph1 (heterogeneous nuclear ribonucleoprotein H1)	no change with or without drug	0.67	0	0.79	1	inactive
6	Nudc (nudC nuclear distribution protein)	no change with or without drug	0.34	0.17	0.34	0.97	inactive
